Experimental data: patent publication US9156784B2, “Herbicidal sulfinimidoyl- and sulfonimidoyl benzoyl derivatives” (BAYER INTELLECTUAL PROPERTY GMBH, priority 2012, dated 2015)
Some results were stated once for a whole list of compounds, not compound by compound.

Tests used:
Format in all cases: in vivo
Abutilon theophrasti [1] = assay: Herbicidal pre-emergence effect against harmful plants; settings: application rate 320 g/ha, scored visually after 3 weeks, 100%=plants have died, 0%=like control plants
Amaranthus retroflexus = assay: as above; settings: application rate 320 g/ha, scored visually after 3 weeks, 100%=plants have died, 0%=like control plants
Abutilon theophrasti [2] = assay: Herbicidal post-emergence activity against harmful plants; settings: application rate 80 g/ha, scored visually after approximately 3 weeks, 100%=plants have died, 0%=like control plants
Echinochloa crus galli = assay: as above; settings: application rate 80 g/ha, scored visually after approximately 3 weeks, 100%=plants have died, 0%=like control plants

Measured: herbicidal activity in percent

COc1c(C(=O)c2c(C)nn(C)c2O)ccc(C(F)(F)F)c1S(C)(=O)=NC#N (stereo not shown) [4-160, 5-hydroxy-1,3-dimethyl-4-[3-(N-cyano-S-methylsulfonimidoyl)-2-methoxy-4-(trifluoromethyl)benzoyl]pyrazole]
at least 80%: all assays above
